{"source": "PubChem BioAssay AID720505 (Drosophila RNAi Screening Center, 2013)", "test": "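Fly regulators or components of the CRAC channel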 (primary screen)", "system": "Drosophila S2R+ cells", "reagents": "long dsRNA against Drosophila genes", "challenge": "thapsigargin (2 µM) in calcium-free buffer to empty internal stores, then 2 mM calcium added back", "measurement": "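Stores emptied by 2 µM thapsigargin without calcium, then 2 mM calcium re-added; fluo-4 fluorescence followed by FLIPR in 384-well plates, per-well averaged endpoint, raw; two screen passes, some wells retested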", "direction": "calcium signal and retest calcium signal: higher = more calcium entry after store depletion", "hit rule": "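About 1500 genes called as lowering calcium entry, by varying amounts, judged against per-plate control wells with STIM1 as positive and Rho1 as negative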", "calls": "active = called as lowering calcium entry; inactive = not called", "note": "In all, the deposit lists about 20,000 reagents; below is a random part of those that have a named target and a result. In the full data, about 2,100 (10%) were called active. 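Raw plate signals without normalisation; calls rest on control-based scores that were not deposited; replicate 2 separates called from uncalled poorly.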 The record does not give: the amount of reagent, the time to read-out."}
{"gene": "CG10560", "dsRNA": "DRSC14256", "calcium signal, replicate 1": 263, "calcium signal, replicate 2": 117, "outcome": "inactive"}
{"gene": "Prp5 (pre-mRNA processing factor 5)", "dsRNA": "DRSC19975", "calcium signal, replicate 1": 71.1, "calcium signal, replicate 2": 76.1, "outcome": "active"}
{"gene": "CG42685", "dsRNA": "DRSC01971", "calcium signal, replicate 1": 75.5, "calcium signal, replicate 2": 114, "retest calcium signal, replicate 1": 164, "retest calcium signal, replicate 2": 135, "outcome": "active"}
{"gene": "CG9135", "dsRNA": "DRSC03144", "calcium signal, replicate 1": 98.8, "calcium signal, replicate 2": 198, "outcome": "inactive"}
{"gene": "CG13526", "dsRNA": "DRSC04168", "calcium signal, replicate 1": 95.7, "calcium signal, replicate 2": 151, "outcome": "inactive"}
{"gene": "tok (tolkin)", "dsRNA": "DRSC17087", "calcium signal, replicate 1": 213, "calcium signal, replicate 2": 206, "outcome": "inactive"}
{"gene": "CG13392", "dsRNA": "DRSC02262", "calcium signal, replicate 1": 164, "calcium signal, replicate 2": 203, "outcome": "inactive"}
{"gene": "Ccn", "dsRNA": "DRSC10062", "calcium signal, replicate 1": 103, "calcium signal, replicate 2": 92.5, "outcome": "inactive"}
{"gene": "Ccn", "dsRNA": "DRSC10063", "calcium signal, replicate 1": 87.8, "calcium signal, replicate 2": 164, "outcome": "inactive"}
{"gene": "CG30158", "dsRNA": "DRSC04956", "calcium signal, replicate 1": 67.8, "calcium signal, replicate 2": 81.7, "outcome": "active"}
{"gene": "CG30158", "dsRNA": "DRSC04974", "calcium signal, replicate 1": 100, "calcium signal, replicate 2": 94.3, "outcome": "inactive"}
{"gene": "CG30158", "dsRNA": "DRSC04975", "calcium signal, replicate 1": 75.8, "calcium signal, replicate 2": 79.2, "outcome": "inactive"}
{"gene": "CG30158", "dsRNA": "DRSC05012", "calcium signal, replicate 1": 76.1, "calcium signal, replicate 2": 80.7, "outcome": "inactive"}
{"gene": "Rab11", "dsRNA": "DRSC16809", "calcium signal, replicate 1": 120, "calcium signal, replicate 2": 132, "outcome": "inactive"}
{"gene": "Ugt37C1 (UDP-glycosyltransferase family 37 member C1)", "dsRNA": "DRSC07416", "calcium signal, replicate 1": 89, "calcium signal, replicate 2": 93.2, "outcome": "inactive"}
{"gene": "CG3819", "dsRNA": "DRSC10378", "calcium signal, replicate 1": 52.7, "calcium signal, replicate 2": 74.7, "outcome": "active"}
{"gene": "Orp8 (Oxysterol-binding protein-related protein 8)", "dsRNA": "DRSC15110", "calcium signal, replicate 1": 134, "calcium signal, replicate 2": 136, "retest calcium signal, replicate 1": 8387, "retest calcium signal, replicate 2": 195, "outcome": "inactive"}
{"gene": "Orp8 (Oxysterol-binding protein-related protein 8)", "dsRNA": "DRSC15712", "calcium signal, replicate 1": 186, "calcium signal, replicate 2": 222, "outcome": "inactive"}
{"gene": "CG14511", "dsRNA": "DRSC14863", "calcium signal, replicate 1": 112, "calcium signal, replicate 2": 114, "outcome": "inactive"}
{"gene": "CG31815", "dsRNA": "DRSC01548", "calcium signal, replicate 1": 65.1, "calcium signal, replicate 2": 117, "outcome": "active"}
{"gene": "Pcif1 (Phosphorylated CTD-interacting factor 1)", "dsRNA": "DRSC11655", "calcium signal, replicate 1": 126, "calcium signal, replicate 2": 120, "outcome": "inactive"}

Next part (4 carried over from the part before).
{"gene": "Orp8 (Oxysterol-binding protein-related protein 8)", "dsRNA": "DRSC15712", "calcium signal, replicate 1": 186, "calcium signal, replicate 2": 222, "outcome": "inactive"}
{"gene": "CG14511", "dsRNA": "DRSC14863", "calcium signal, replicate 1": 112, "calcium signal, replicate 2": 114, "outcome": "inactive"}
{"gene": "CG31815", "dsRNA": "DRSC01548", "calcium signal, replicate 1": 65.1, "calcium signal, replicate 2": 117, "outcome": "active"}
{"gene": "Pcif1 (Phosphorylated CTD-interacting factor 1)", "dsRNA": "DRSC11655", "calcium signal, replicate 1": 126, "calcium signal, replicate 2": 120, "outcome": "inactive"}
{"gene": "rtp (retinophilin)", "dsRNA": "DRSC12132", "calcium signal, replicate 1": 60.5, "calcium signal, replicate 2": 118, "outcome": "active"}
{"gene": "Muc14A (Mucin 14A)", "dsRNA": "DRSC23264", "calcium signal, replicate 1": 146, "calcium signal, replicate 2": 85.5, "outcome": "inactive"}
{"gene": "CG7079", "dsRNA": "DRSC16192", "calcium signal, replicate 1": 228, "calcium signal, replicate 2": 151, "outcome": "inactive"}
{"gene": "Nup93-2 (Nucleoporin 93kD-2)", "dsRNA": "DRSC16221", "calcium signal, replicate 1": 144, "calcium signal, replicate 2": 98.5, "outcome": "inactive"}
{"gene": "CG33169", "dsRNA": "DRSC11853", "calcium signal, replicate 1": 105, "calcium signal, replicate 2": 116, "outcome": "inactive"}
{"gene": "CG5674", "dsRNA": "DRSC02874", "calcium signal, replicate 1": 110, "calcium signal, replicate 2": 141, "outcome": "inactive"}
{"gene": "CG5674", "dsRNA": "DRSC23176", "calcium signal, replicate 1": 139, "calcium signal, replicate 2": 133, "outcome": "inactive"}
{"gene": "CG18476", "dsRNA": "DRSC15281", "calcium signal, replicate 1": 111, "calcium signal, replicate 2": 127, "outcome": "inactive"}
{"gene": "CkIIalpha-i3 (CKII-alpha subunit interactor-3)", "dsRNA": "DRSC08651", "calcium signal, replicate 1": 54, "calcium signal, replicate 2": 133, "outcome": "active"}
{"gene": "CG6689", "dsRNA": "DRSC16095", "calcium signal, replicate 1": 107, "calcium signal, replicate 2": 134, "outcome": "inactive"}
{"gene": "Skadu", "dsRNA": "DRSC01490", "calcium signal, replicate 1": 140, "calcium signal, replicate 2": 81.6, "outcome": "inactive"}
{"gene": "Naxd (NAD(P)HX dehydratase)", "dsRNA": "DRSC09722", "calcium signal, replicate 1": 153, "calcium signal, replicate 2": 93.4, "outcome": "inactive"}
{"gene": "AIMP3 (aaRS-interacting multifunctional protein 3)", "dsRNA": "DRSC04500", "calcium signal, replicate 1": 188, "calcium signal, replicate 2": 173, "outcome": "inactive"}
{"gene": "CG16781", "dsRNA": "DRSC18117", "calcium signal, replicate 1": 130, "calcium signal, replicate 2": 119, "outcome": "inactive"}
